Publication PMC12350150

Chains of the proteins cited; added tags and fusions are not shown. Lines headed by an entry give the natural chain unless they say otherwise; changes in a name come on top.
UniProt Q06890: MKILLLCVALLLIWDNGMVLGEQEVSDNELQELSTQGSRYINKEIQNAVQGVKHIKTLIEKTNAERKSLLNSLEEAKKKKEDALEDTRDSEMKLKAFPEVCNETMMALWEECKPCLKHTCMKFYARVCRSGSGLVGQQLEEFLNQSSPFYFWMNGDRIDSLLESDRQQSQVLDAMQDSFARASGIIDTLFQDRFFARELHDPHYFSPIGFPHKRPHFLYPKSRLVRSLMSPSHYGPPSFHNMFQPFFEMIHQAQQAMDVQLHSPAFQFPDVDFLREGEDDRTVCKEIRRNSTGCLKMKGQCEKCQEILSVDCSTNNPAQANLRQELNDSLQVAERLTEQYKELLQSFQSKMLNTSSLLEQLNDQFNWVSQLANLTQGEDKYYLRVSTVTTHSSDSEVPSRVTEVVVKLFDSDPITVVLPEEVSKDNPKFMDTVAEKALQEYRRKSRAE
UniProt Q80U63: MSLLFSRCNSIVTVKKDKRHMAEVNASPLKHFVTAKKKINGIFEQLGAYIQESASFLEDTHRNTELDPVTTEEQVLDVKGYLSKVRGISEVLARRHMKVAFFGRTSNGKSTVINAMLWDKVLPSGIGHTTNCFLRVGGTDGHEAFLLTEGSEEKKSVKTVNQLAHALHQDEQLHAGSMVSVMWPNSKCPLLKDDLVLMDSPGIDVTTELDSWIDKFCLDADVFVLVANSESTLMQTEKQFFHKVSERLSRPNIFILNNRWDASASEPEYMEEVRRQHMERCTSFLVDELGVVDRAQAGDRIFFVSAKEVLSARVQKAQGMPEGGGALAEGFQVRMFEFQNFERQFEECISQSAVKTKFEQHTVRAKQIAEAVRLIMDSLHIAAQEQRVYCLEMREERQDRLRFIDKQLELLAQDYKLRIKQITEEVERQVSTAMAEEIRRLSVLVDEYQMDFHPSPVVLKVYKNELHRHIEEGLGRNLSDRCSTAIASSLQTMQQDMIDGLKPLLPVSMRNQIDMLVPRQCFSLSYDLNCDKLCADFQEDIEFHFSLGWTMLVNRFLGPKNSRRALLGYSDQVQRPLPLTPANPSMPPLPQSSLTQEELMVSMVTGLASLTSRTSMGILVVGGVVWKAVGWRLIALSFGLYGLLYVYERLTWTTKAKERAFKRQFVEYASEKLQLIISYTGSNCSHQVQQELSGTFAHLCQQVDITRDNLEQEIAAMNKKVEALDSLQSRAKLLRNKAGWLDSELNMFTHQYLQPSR

How the values were obtained:
cClu-mut1-v5 (murine) = cClu-mut1-v5 (murine) (UniProt Q06890); assay: co-IP; v5-tagged cClu (wild type or mutant) co-expressed with a 10 × myc-tagged partner in HPC7 cells; Pierce IP Lysis Buffer; antibody cross-linked to Dynabeads Protein G, lysate rotated at 4 °C overnight; immunoblots on the ProteinSimple WES
cClu-mut2-v5 (murine) = cClu-mut2-v5 (murine) (UniProt Q06890); assay: as above

Substance: Mfn2-10 × myc (from UniProt Q80U63 1-757)
- binding (cClu-mut1-v5 (murine)): binds
- binding (cClu-mut2-v5 (murine)): no binding

Results are given in words; binding and its absence hold for the method and conditions named. In cells and extracts the contact can be indirect. For some assays here: Binding calls can cover weak binding; strength is not graded here.
